Binding data for 1 substance are collected here from patent US20170114124A1.

Amino acid sequences for entries named in this document (tags omitted). Residues count along the entry.
UniProt Q9Y6N7, residues 26-1651: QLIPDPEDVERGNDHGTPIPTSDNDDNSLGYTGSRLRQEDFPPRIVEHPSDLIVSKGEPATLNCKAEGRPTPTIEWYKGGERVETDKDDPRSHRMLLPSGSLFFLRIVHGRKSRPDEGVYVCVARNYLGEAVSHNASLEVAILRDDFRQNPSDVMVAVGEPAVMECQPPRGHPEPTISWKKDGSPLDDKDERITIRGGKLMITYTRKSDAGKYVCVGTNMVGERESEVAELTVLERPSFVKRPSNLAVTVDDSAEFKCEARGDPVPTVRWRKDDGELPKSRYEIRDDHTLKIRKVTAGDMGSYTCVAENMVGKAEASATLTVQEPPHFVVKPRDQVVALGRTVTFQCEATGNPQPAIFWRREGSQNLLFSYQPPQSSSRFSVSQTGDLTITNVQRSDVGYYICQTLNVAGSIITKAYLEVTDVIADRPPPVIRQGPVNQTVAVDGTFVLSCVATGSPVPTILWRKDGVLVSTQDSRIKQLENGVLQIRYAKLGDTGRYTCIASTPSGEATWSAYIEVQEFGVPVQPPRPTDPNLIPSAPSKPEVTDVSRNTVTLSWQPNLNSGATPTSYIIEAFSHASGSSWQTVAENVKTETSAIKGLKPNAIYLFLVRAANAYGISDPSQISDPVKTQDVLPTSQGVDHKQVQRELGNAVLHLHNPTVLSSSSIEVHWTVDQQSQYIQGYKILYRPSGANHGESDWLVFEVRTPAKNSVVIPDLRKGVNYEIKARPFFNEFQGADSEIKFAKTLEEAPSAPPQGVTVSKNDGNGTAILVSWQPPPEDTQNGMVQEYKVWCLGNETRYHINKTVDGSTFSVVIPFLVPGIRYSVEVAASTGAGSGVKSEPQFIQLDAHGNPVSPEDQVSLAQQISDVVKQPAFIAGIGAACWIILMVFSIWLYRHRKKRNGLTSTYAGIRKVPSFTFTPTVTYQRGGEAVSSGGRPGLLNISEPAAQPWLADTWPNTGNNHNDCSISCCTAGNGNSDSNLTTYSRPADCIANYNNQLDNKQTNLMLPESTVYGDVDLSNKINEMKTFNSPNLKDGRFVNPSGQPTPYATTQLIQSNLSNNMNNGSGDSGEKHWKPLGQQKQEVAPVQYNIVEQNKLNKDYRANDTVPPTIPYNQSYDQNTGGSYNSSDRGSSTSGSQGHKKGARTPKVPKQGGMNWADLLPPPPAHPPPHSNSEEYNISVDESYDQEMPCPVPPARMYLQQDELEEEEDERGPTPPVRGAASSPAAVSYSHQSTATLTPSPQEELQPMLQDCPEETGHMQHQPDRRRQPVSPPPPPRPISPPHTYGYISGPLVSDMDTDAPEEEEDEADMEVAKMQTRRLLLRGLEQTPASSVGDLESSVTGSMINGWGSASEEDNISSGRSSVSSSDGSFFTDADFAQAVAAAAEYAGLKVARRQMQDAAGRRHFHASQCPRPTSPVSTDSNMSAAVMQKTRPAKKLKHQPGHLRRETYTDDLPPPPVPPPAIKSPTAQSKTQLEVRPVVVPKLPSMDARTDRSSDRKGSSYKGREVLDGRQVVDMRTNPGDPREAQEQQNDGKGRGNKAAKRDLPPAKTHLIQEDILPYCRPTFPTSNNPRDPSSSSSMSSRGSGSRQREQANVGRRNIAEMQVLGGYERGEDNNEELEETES
UniProt Q13459, residues 2-2157: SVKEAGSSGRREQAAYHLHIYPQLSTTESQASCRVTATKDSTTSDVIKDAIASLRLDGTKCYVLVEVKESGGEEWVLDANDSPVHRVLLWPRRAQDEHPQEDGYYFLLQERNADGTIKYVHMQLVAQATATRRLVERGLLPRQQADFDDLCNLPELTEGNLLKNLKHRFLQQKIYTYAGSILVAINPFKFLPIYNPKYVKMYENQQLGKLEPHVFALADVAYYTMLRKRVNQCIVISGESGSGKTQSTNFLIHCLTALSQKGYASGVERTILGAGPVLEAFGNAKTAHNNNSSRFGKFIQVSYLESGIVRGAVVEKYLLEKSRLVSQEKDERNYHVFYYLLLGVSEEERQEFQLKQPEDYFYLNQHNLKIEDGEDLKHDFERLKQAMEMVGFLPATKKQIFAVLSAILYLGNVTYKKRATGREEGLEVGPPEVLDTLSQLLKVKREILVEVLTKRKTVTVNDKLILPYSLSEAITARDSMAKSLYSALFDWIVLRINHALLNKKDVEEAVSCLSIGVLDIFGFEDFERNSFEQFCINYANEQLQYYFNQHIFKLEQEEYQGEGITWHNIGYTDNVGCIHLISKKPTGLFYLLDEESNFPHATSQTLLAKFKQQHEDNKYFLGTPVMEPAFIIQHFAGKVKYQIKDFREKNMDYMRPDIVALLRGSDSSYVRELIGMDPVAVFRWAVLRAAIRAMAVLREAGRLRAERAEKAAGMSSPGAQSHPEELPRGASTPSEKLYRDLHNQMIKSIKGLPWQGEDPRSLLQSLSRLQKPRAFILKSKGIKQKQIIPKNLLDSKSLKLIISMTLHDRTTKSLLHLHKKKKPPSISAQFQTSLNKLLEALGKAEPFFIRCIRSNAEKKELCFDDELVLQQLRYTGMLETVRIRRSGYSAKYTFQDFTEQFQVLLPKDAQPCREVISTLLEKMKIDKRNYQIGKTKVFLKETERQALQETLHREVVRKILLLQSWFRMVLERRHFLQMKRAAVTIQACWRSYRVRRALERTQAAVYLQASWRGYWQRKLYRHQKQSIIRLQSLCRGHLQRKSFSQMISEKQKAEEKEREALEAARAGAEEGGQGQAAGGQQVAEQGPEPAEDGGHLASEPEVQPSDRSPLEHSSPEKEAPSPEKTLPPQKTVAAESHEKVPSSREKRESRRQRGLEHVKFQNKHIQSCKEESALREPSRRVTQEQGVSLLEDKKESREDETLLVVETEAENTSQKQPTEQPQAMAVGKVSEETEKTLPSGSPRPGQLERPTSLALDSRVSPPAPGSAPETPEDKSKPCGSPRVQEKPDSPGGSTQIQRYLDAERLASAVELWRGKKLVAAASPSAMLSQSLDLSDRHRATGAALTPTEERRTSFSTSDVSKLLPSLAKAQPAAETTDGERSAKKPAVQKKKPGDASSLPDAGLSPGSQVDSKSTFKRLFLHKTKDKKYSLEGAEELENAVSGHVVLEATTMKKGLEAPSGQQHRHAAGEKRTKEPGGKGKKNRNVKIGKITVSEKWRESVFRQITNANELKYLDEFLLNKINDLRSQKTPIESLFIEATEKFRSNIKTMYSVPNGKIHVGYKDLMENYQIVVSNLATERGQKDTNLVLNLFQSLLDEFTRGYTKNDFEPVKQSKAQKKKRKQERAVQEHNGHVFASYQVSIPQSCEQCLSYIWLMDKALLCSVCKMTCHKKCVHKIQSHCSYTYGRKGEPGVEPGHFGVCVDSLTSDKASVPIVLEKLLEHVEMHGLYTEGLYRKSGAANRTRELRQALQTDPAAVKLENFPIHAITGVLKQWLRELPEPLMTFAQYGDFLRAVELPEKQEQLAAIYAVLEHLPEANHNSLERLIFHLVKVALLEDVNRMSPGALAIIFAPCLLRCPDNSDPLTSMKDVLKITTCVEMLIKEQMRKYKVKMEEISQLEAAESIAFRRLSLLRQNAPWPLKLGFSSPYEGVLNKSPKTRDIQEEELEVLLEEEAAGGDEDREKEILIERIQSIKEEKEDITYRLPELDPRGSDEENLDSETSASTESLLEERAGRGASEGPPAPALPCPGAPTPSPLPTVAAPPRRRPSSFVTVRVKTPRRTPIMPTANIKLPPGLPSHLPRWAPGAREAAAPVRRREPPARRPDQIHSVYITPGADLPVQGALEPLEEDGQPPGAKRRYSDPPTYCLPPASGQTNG

No constants are given. Whether binding was seen depends on the method and setting. In cells and extracts the contact can be indirect. Some results given as binding are weak or reduced against the parent protein; the word gives no strength.

In assay [1] the target is Robo1, endogenous protein of H1299 lung cancer cells (human) (UniProt Q9Y6N7). The experiment in a line: co-immunoprecipitation of endogenous proteins, H1299 lysates, figure legend.
Assay [2] shares this target. The experiment in a line: co-immunoprecipitation of endogenous proteins, H1299 lysates.

For “Myo9b (Myosin IXb), endogenous protein (from UniProt Q13459 2-2157)”, the binding result in assay [1] and in assay [2] was “binds” each time.
